# Primary screen of a compound library

By UniProt entry, the sequences of proteins in these tests, tags left out. Residues count along the entry.
UniProt P9WPC5, whole entry: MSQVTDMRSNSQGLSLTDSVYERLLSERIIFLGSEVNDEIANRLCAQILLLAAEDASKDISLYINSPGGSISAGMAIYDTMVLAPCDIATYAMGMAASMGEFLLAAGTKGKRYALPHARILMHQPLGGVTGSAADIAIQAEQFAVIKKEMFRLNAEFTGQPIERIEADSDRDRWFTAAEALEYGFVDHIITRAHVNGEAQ
UniProt P9WPC3, whole entry partner: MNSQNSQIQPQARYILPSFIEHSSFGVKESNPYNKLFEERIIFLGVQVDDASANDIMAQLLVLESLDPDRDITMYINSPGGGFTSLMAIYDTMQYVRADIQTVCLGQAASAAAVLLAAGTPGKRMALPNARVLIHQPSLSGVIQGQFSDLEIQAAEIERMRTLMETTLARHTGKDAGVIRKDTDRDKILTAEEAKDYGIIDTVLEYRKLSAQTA
UniProt Q4DA54, 1-478: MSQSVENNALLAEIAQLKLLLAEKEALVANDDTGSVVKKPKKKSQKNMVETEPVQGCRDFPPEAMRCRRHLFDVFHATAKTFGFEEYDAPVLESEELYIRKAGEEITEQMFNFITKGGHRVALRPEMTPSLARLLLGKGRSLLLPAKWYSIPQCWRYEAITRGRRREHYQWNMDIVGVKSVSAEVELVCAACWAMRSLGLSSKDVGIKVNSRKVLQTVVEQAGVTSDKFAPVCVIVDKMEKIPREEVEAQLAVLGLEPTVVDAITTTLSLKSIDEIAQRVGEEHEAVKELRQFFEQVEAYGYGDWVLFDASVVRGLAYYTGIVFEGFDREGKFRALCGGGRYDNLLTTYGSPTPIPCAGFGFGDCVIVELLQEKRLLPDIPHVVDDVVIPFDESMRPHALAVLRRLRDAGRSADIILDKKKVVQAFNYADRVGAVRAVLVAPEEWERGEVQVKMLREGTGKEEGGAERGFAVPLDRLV
UniProt I6X8D2, whole entry: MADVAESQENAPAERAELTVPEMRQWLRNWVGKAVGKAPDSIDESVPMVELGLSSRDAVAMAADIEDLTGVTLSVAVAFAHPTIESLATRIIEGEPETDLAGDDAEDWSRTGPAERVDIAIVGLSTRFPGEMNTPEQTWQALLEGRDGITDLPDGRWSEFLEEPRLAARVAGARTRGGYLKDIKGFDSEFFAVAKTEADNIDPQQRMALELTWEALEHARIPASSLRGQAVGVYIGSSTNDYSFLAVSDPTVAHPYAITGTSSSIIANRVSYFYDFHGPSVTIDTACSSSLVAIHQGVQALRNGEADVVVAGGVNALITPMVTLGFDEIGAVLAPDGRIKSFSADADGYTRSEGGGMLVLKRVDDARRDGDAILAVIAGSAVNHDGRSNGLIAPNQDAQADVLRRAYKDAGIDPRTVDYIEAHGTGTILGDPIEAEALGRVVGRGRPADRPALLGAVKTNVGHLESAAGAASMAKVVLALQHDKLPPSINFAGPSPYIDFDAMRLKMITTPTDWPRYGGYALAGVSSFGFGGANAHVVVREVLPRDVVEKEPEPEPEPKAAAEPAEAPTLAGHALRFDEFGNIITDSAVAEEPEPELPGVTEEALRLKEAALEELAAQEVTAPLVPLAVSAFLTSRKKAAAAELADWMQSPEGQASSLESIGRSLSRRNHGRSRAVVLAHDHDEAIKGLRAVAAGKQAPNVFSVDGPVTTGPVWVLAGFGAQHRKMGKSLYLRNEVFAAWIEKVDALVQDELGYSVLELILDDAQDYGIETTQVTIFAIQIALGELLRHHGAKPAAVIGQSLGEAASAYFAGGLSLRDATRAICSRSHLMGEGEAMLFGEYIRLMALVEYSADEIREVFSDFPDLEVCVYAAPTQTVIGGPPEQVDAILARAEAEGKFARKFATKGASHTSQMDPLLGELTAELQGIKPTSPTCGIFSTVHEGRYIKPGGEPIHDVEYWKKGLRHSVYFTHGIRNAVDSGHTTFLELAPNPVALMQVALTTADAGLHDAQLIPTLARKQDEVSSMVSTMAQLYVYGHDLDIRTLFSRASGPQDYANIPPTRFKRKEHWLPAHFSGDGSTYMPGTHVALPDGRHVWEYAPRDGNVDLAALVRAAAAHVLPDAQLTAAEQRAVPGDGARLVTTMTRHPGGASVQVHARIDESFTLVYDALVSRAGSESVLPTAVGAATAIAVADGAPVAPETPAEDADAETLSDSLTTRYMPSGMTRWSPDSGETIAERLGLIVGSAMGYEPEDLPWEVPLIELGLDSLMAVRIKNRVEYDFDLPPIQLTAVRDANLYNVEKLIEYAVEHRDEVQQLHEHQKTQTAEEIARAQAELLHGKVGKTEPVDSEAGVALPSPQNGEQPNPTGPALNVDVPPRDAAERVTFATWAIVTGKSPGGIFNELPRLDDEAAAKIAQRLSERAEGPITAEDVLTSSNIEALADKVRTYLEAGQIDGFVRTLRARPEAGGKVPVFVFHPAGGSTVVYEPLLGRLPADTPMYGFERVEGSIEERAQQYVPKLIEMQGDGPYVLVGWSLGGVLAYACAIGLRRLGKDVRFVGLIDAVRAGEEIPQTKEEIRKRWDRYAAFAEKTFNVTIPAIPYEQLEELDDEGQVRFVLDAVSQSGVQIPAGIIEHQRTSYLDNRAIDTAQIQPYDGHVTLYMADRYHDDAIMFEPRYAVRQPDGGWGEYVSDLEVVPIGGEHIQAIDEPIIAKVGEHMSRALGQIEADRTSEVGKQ
UniProt Q8IDJ8, 1-583: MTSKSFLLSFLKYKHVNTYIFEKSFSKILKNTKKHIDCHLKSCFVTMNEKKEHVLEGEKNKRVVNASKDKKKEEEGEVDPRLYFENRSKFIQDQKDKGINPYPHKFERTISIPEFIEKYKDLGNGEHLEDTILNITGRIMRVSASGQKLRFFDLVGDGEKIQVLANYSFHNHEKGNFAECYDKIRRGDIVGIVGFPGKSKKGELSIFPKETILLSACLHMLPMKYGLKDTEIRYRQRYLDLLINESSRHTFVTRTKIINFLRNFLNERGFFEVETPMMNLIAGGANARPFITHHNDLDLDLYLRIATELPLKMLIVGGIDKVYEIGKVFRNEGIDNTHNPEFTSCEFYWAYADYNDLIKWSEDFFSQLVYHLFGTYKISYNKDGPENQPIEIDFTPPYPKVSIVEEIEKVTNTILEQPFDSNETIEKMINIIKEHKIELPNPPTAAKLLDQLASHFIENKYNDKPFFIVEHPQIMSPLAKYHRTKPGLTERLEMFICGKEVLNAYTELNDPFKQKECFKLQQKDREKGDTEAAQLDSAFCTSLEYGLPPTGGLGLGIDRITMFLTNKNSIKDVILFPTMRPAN

Measurements from “University of Dundee, Small-Polar-MMV Screening Library” (2021), ChEMBL document CHEMBL3988442.

ClpP1P2: 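Protease assay of ClpP1P2, read by the AMC dye that it sets free. Target: ClpP1P2, Mycobacterium tuberculosis (UniProt P9WPC5 and UniProt P9WPC3). Compounds at 50 µM. Higher reads as stronger inhibition, judged from the few compounds that gave an IC50. Most other retested compounds had strongly negative values. Size under these conditions: about 69,000 compounds, about 10 of them at 50% or above in at least one test.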
Toxoplasma: 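Assay of Toxoplasma gondii numbers, read through their beta-galactosidase reporter with a colour substrate. Concentration: 10 µM. The record gives no direction; the compounds picked for IC50 retests had high values, so higher reads as fewer parasites. About 67,000 compounds were tested under these conditions; 0.38% (about 260) showed 50% or more at least once.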
TcHisRS: 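Histidine-tRNA ligase, Trypanosoma cruzi CL Brener (UniProt Q4DA54). Enzyme assay of histidyl-tRNA synthetase; the read-out is not stated. Concentration: 30 µM. The record gives no direction; compounds that gave an IC50 in retests scored well above the rest, so higher reads as stronger inhibition. Of about 69,000 compounds tested this way, about 31 (0.045%) reached 50% or more in at least one test.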
Pks13 thioesterase: 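Enzyme assay of the thioesterase domain of polyketide synthase 13; the read-out is not stated. Target: Polyketide synthase Pks13, Mycobacterium tuberculosis (UniProt I6X8D2). Concentration: 30 µM. Higher reads as stronger inhibition (inferred from which compounds were picked for retests). Size under these conditions: about 67,000 compounds, about 300 of them at 50% or above in at least one test.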
PfKRS1: 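Enzyme assay of the cytosolic lysyl-tRNA synthetase in 384-well plates, read by luminescence. Target: Lysine-tRNA ligase, Plasmodium falciparum 3D7 (UniProt Q8IDJ8). Concentration: 30 µM. Higher reads as stronger inhibition, judged from the few compounds that gave an IC50. Of about 69,000 compounds tested this way, about 49 (0.071%) reached 50% or more in at least one test.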

The filed quantity is “Percent Effect” (%).
How 0% and 100% were set is not recorded. Most values in the screen are low, and negative values occur.
This is an unselected part of the compounds tested.
A dash means the value is not listed here; it may have been measured.

SMILES	ClpP1P2	Toxoplasma	TcHisRS	Pks13 thioesterase	PfKRS1
O=C(O)C(F)(F)F.[H][C@@]12CN(Cc3cnn(C)c3)CCC[C@]1(C(=O)O)CN(c1ncccn1)C2	-	5.788	-	-	-
CC(C)N1CCC2(C=C(C(=O)NC3CC3)c3ccccc32)CC1.O=C(O)C(F)(F)F	-	-33.54	-	-	-
CCN(CC)C(=O)C1CCCN1C(=O)c1cccc(-n2cnnn2)c1 (stereo unspecified)	-1.03	-25.92	4.651	1.155	0.8103
COCCN1CC(C(=O)N(CCN(C)C)Cc2ccc(C)s2)CC1=O (stereo unspecified)	-10.11	1.356	3.004	-21.13	2.361
O=C(NCC1(CO)CC1)c1cccc2ccccc12	-7.223	-0.4379	7.438	-9.061	-0.7071
CCC(CC)C(O)CNC(=O)Nc1cc(C)nn1C (stereo unspecified)	-0.8181	-	-0.7519	-25.27	6.601
O=C(NCCN1CCCC1)c1cc2c(s1)CCN2c1ncccn1	-0.7281	-5.696	8.84	15.49	2.195
O=C(NCCN1CCOCC1)c1cc(-c2ccccc2Cl)[nH]n1	4.493	-1.617	-0.5405	0.4367	-1.43
COc1ccc(-c2nnc(C(C)N3CCOC(C)(C)C3)o2)cc1 (stereo unspecified)	-1.611	-1.391	5.911	14.81	4.383
CCc1nnsc1C(=O)N1CCOC(c2nc(C(C)C)n[nH]2)C1 (stereo unspecified)	-15.14	-	5.941	-5.307	0.4076
Cc1cnn(CC2CCCCN2C(=O)CN(C)C2CC2)c1 (stereo unspecified)	14.58	-1.069	-3.383	-20.75	4.767
Cc1nc(N2CCOCC2)nc2c1CCN(Cc1ccsc1)CC2.O=C(O)C(F)(F)F	-	3.374	-	-	-
c1cncc(CN2CCC(c3ccnc4nccn34)C2)c1 (stereo unspecified)	-43.58	-13.28	3.448	-3.599	1.253
O=C(Nc1ccc(N2CCCC2)nc1)N1CCc2sccc2C1	14	-10.59	5.882	16.49	2.926
Cc1cc(F)cc(NC(=O)N(C)CC(C)(CO)CO)c1	-0.09412	3.167	13.4	-15.93	0.4573
Cc1nn(C)c(C)c1CNC1CCOc2ccccc21 (stereo unspecified)	2.03	5.051	2.542	-10.61	4.324
CN(C)CCn1c2c(ccc1=O)CC(NC(=O)c1ccsc1)CC2.O=C(O)C(F)(F)F (stereo unspecified)	-	1.626	-	-	-
Cc1cc(C)cc(N2CCN(Cc3cccnc3)CC2=O)c1	-3.451	12.02	8.8	-	6.067
CN1C(=O)C2(NC(=O)c3ccccc3O2)c2ccccc21 (stereo unspecified)	-8.599	7.085	9.375	-19.47	8.336
CC(C)C(=O)NCCNc1nccc(-c2cc(C(=O)O)ccn2)n1	-3.375	2.408	0	-15.38	1.634
Cc1nccn1C1CCCN(C(=O)c2ccc3c(c2)COC3)C1 (stereo unspecified)	2.428	4.308	6.513	-	-0.7225
CC[C@H]1CN(C(=O)C2CC2)CC[C@H]1CC(=O)NCCN1CCOCC1	-8.274	13.26	12.87	-33.59	2.752
CSCCCN1C[C@H](NC(=O)c2cc(C3CC3)on2)[C@@H](C2CC2)C1	-6.13	-3.368	3.863	-3.613	1.022
COc1ccccc1C(C)CNC(=O)c1[nH]ncc1Br (stereo unspecified)	-1.128	-0.3846	0.5236	-14.79	4.423
Cn1cccc1C(=O)OCCNC(=O)c1ccccc1	-5.311	-3.073	0	-9.913	5.236
CC(C)c1nccn1C1CCCN(C(=O)c2cccc3c2OCO3)C1 (stereo unspecified)	8.738	-1.781	2.256	-6.885	0.9151
CC(C)c1noc(C(C)N2CCN(Cc3nc4ccccc4[nH]3)CC2)n1 (stereo unspecified)	1.059	10.85	-2.381	2.127	3.99
CC(C)C(=O)N1CCC2(CCN2CC2CC2)C1.O=C(O)C(F)(F)F (stereo unspecified)	-	-16.04	-	-	-
[H][C@@]12COC[C@H](C(=O)N3CCCCO3)[C@]1([H])CN(C1CCOCC1)C2	-	1.108	-	-	-
CCn1cc(CN2CCCC2c2nc(C(C)C)no2)cc1C#N (stereo unspecified)	-18.71	-27.1	-6.763	-24.22	-2.275
O=C(NCCn1nc(-n2cncn2)ccc1=O)c1ccc(F)cc1F	-19.91	-0.04943	4	-8.978	-1.974
CC(=O)N1CCN(Cc2csc(-c3cnn(C)c3)n2)CC1	6.852	-72.97	1.141	-5.016	3.092
Cn1nc2c(cc1=O)CN(Cc1nc(N)c3ccccc3n1)CC2	-23.72	20.66	4.036	3.133	-0.7899
CCC(Nc1nnnn1-c1ccccc1)C(=O)Nc1ccccc1C (stereo unspecified)	8.211	-20.7	1.111	-42.37	3.848
Cc1ccc2c(c1)c(CNC(C)Cn1nc(C)cc1C)nn2C (stereo unspecified)	12.56	7.462	1.587	-36.57	2.496
N#CCCN(C(=O)CCc1cscn1)c1ccc2c(c1)OCCO2	5.829	1.262	4.972	-4.221	0.1118
CC(C)(C#N)CCCS(=O)(=O)c1nccn1-c1cccc(F)c1	-7.667	5.452	-2.564	-21.68	2.159
CC(Cn1cccn1)NS(=O)(=O)Cc1ccc(F)cc1 (stereo unspecified)	10.34	-1.935	0.5348	-45.91	-2.024
Nc1cc(-c2cc[nH]n2)nc(N2CCCC2)n1	11.77	26.2	6.438	3.624	1.445
CC(C)(C)CCN1CCN(Cn2nccc2-c2cccnc2)CC1	3.981	1.685	8.021	-19.87	-0.1243
COC(=O)NCCC(=O)NC(c1ccc(Cl)cc1)C(F)(F)F (stereo unspecified)	0.5383	2.065	-4.04	-17.91	4.332
COCC(=O)NCc1cc(=O)n2c(n1)CN(Cc1nccs1)CCC2	0.8079	-45.68	8.466	-17.25	4.001
CC(C)CC(=O)N1CC[C@H]2N(C)CC[C@@]2(C(=O)Nc2cccnc2)CC1	-5.203	-	5.525	0.7788	3.244
Fc1ccc(-c2nc(CN3CCn4c(nnc4C4CC4)C3)co2)cc1	-21.46	0.1078	0.565	-10.69	2.046
COCCOc1cc(C(=O)N2CC(C)c3ccccc32)ccn1 (stereo unspecified)	-2.229	5.418	0	-21.53	-0.4929
O=C(NCCc1cccs1)[C@H]1CO[C@H]2CCN(CC3CC3)C[C@H]2C1	-2.183	-	3.175	-12.02	1.06
Cc1cc(C(=O)NCC(C)N2CCc3ccccc32)no1 (stereo unspecified)	-4.284	-2.336	4.943	-6.726	5.082
C1CN(CC2CC2)C(COCC2CC2)c2nnn(CC3CC3)c21.O=C(O)C(F)(F)F (stereo unspecified)	-	0.2973	-	-	-
CCC(C)NC(=O)Cc1c(C)nc2c(c1C)c(=O)[nH]n2C (stereo unspecified)	-5.449	9.78	-4.184	-18.15	1.094
CC(C)c1nnc(NC(=O)CCC(=O)NCC2CCCO2)s1 (stereo unspecified)	-15.87	17.91	0	-4.566	1.44

The last 5 entries again:

* O=C(NCCc1cccs1)[C@H]1CO[C@H]2CCN(CC3CC3)C[C@H]2C1 : ClpP1P2: -2.183%; TcHisRS: 3.175%; Pks13 thioesterase: -12.02%; PfKRS1: 1.06%
* Cc1cc(C(=O)NCC(C)N2CCc3ccccc32)no1 (stereo unspecified) : ClpP1P2: -4.284%; Toxoplasma: -2.336%; TcHisRS: 4.943%; Pks13 thioesterase: -6.726%; PfKRS1: 5.082%
* C1CN(CC2CC2)C(COCC2CC2)c2nnn(CC3CC3)c21.O=C(O)C(F)(F)F (stereo unspecified) : Toxoplasma: 0.2973%
* CCC(C)NC(=O)Cc1c(C)nc2c(c1C)c(=O)[nH]n2C (stereo unspecified) : ClpP1P2: -5.449%; Toxoplasma: 9.78%; TcHisRS: -4.184%; Pks13 thioesterase: -18.15%; PfKRS1: 1.094%
* CC(C)c1nnc(NC(=O)CCC(=O)NCC2CCCO2)s1 (stereo unspecified) : ClpP1P2: -15.87%; Toxoplasma: 17.91%; TcHisRS: 0%; Pks13 thioesterase: -4.566%; PfKRS1: 1.44%